The values below come from patent publication US20260083725A1, “SIGMARI LIGAND FOR THE TREATMENT OF PANCREATIC CANCER” (INSTITUT NATIONAL DE LA SANTÉ ET DE LA RECHERCHE MÉDICALE, priority 2022, published 2026).

By UniProt entry, the sequences of proteins in these tests, tags left out.
UniProt P05556: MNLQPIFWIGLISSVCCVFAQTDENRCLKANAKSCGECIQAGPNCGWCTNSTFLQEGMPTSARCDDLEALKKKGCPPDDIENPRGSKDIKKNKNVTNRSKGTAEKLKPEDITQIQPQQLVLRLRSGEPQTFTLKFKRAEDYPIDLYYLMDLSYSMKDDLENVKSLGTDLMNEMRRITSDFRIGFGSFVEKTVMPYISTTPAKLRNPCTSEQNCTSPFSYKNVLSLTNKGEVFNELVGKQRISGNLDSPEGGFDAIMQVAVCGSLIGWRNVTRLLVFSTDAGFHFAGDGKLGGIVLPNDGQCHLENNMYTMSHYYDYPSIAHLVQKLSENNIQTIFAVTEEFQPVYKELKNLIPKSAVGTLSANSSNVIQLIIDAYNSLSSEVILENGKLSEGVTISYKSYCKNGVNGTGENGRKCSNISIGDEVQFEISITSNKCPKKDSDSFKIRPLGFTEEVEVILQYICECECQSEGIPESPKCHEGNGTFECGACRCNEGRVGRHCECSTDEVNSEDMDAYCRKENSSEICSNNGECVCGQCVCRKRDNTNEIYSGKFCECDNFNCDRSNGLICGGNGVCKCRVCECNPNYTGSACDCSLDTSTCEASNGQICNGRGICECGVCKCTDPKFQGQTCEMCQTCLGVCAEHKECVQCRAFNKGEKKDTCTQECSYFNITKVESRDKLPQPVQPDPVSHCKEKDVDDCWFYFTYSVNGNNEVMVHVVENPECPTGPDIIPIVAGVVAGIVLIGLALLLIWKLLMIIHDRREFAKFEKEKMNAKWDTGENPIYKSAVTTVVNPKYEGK

Results are given in words; binding and its absence hold for the method and conditions named. Binding seen in cells or lysates may run through a third protein. Some binding calls cover weakened binding; strength is not graded here.

In assay [1] the target is β1 integrin subunit (UniProt P05556). As to the kind of experiment: in situ proximity ligation assay in PANC-1 cells (restated in the discussion).
For assay [2] the target is unchanged. As to the kind of experiment: in situ proximity ligation assay in PANC-1 cells; promoted by CAF-CM, required Sig-1R.

With “SK2 K+ channel (from UniProt Q9H2S1 1-579)”, the binding result in assay [1] and in assay [2] was “binds” each time.
